Test results: paper doi:10.1101/2024.05.27.596010

Protein sequences, listed by entry. Tags and fused reporters are not part of them. Lines headed by an entry give the natural chain unless they say otherwise; changes in a name come on top.
UniProt P02545: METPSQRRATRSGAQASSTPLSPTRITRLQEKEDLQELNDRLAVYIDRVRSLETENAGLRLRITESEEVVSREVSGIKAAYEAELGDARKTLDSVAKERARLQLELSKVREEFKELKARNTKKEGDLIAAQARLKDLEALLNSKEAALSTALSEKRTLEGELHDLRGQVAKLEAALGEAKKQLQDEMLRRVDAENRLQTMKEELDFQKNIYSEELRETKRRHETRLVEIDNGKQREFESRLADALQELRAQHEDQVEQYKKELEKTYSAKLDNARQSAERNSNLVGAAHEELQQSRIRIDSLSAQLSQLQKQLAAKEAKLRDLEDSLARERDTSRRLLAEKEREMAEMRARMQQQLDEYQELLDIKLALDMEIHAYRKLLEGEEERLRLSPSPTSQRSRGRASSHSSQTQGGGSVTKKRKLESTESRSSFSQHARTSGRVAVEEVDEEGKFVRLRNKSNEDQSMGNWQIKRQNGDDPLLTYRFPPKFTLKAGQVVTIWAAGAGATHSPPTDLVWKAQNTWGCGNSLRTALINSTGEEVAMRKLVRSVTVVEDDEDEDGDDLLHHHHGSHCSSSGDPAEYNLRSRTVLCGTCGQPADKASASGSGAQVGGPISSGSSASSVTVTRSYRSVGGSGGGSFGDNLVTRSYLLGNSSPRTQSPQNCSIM
UniProt P22216: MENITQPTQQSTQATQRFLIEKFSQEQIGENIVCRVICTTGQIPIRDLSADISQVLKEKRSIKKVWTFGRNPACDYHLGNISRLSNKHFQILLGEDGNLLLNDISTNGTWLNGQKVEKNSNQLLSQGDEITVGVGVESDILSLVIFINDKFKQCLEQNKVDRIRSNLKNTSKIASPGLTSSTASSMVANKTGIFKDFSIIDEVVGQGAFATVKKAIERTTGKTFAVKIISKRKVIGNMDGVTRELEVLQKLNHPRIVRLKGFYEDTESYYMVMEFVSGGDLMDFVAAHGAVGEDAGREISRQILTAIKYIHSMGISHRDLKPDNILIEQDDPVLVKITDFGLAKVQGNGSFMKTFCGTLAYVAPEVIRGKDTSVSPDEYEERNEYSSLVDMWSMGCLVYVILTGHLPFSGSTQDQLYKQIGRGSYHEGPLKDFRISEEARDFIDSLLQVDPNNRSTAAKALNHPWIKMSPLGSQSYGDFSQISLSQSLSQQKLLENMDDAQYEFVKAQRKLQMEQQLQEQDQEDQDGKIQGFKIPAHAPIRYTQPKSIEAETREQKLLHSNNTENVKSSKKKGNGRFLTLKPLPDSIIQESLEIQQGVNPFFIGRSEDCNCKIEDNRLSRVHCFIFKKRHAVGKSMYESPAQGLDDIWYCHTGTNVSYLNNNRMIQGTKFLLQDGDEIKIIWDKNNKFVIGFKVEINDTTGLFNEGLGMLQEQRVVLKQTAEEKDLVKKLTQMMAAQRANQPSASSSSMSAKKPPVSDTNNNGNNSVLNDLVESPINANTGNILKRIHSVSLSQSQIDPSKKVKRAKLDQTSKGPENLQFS

Target: full-length lamin A S392A of the S392A LAPS mutant biosensor (UniProt P02545)
Experiment: FRET or BRET

## FHA2 domain of the lamin A phosphorylation sensor (LAPS), wild type (from UniProt P22216) (domain or fragment)
  binding: binds

These are yes or no findings as the source states them, for the method shown. In cells and extracts the contact can be indirect. Binding can be weak; no strength is given.
